Results taken from PMC8433149.

Sequences of proteins named here, by UniProt entry; tags and fusion partners are left off.
UniProt Q92556: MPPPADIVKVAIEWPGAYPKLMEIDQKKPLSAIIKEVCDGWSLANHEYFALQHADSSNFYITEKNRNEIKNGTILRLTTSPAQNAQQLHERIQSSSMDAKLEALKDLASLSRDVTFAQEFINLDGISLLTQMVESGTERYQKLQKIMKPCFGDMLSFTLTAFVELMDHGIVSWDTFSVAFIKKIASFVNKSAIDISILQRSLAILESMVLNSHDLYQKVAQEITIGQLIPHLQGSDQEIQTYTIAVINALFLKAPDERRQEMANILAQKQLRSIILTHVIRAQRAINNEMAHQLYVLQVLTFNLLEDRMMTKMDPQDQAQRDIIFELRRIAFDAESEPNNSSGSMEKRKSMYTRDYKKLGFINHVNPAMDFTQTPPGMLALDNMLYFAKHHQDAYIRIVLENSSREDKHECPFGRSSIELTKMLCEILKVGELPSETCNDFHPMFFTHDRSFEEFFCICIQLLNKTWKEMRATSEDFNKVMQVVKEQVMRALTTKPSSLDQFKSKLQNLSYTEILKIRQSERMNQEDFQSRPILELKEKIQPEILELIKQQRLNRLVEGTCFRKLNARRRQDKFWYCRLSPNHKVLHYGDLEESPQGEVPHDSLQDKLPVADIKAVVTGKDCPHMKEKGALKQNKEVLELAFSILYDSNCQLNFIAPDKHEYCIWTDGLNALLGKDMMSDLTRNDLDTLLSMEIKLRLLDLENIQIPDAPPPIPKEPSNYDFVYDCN
UniProt Q8N1I0: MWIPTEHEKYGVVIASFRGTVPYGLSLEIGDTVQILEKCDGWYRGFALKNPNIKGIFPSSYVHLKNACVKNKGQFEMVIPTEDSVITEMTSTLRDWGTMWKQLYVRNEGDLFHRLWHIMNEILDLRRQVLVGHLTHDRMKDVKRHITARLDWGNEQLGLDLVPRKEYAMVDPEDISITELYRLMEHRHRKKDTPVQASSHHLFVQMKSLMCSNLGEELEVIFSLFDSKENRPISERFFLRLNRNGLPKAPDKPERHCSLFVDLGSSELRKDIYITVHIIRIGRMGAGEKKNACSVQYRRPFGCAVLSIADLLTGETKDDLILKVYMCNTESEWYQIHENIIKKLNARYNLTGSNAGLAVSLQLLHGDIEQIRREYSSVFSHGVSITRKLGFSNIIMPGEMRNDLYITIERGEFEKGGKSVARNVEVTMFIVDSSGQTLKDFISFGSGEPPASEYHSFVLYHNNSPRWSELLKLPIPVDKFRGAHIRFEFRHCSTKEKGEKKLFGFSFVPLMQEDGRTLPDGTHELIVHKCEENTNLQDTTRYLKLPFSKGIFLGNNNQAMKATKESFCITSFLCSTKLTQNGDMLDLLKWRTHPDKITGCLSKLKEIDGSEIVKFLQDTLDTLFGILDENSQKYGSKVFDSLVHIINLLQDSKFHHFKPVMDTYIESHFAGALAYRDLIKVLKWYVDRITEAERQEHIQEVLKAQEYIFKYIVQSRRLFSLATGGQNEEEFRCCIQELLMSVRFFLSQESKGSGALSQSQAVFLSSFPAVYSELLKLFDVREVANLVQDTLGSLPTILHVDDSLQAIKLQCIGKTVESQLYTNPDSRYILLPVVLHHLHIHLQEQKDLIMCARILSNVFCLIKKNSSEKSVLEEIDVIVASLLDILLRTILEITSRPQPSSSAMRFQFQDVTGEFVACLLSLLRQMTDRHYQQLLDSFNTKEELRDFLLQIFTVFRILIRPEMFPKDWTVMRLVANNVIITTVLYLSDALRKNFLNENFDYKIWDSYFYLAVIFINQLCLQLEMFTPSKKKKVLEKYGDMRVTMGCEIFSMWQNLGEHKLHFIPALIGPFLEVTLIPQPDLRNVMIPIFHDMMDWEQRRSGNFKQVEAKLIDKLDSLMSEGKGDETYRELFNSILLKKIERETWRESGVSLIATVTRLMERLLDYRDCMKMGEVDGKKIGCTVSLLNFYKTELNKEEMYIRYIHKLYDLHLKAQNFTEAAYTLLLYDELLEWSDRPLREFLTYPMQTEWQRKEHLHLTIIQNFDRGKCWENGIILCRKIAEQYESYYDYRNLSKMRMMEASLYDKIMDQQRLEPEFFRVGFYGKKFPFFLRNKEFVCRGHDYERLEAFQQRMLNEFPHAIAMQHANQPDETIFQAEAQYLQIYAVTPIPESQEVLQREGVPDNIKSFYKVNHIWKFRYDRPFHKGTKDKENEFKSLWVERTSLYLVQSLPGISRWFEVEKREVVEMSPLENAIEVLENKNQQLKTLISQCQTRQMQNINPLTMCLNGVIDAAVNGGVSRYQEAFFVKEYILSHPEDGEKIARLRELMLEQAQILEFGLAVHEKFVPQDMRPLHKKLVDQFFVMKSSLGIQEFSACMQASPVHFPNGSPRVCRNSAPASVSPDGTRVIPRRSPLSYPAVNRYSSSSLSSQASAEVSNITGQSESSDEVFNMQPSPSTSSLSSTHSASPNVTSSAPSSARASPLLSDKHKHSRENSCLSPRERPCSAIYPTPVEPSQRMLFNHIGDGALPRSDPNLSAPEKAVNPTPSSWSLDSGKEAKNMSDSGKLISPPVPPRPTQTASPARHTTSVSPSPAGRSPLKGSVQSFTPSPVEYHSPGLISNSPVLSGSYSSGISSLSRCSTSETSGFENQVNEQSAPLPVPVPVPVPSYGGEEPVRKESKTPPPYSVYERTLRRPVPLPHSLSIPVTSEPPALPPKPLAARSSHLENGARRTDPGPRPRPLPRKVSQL
UniProt Q9Y2A7: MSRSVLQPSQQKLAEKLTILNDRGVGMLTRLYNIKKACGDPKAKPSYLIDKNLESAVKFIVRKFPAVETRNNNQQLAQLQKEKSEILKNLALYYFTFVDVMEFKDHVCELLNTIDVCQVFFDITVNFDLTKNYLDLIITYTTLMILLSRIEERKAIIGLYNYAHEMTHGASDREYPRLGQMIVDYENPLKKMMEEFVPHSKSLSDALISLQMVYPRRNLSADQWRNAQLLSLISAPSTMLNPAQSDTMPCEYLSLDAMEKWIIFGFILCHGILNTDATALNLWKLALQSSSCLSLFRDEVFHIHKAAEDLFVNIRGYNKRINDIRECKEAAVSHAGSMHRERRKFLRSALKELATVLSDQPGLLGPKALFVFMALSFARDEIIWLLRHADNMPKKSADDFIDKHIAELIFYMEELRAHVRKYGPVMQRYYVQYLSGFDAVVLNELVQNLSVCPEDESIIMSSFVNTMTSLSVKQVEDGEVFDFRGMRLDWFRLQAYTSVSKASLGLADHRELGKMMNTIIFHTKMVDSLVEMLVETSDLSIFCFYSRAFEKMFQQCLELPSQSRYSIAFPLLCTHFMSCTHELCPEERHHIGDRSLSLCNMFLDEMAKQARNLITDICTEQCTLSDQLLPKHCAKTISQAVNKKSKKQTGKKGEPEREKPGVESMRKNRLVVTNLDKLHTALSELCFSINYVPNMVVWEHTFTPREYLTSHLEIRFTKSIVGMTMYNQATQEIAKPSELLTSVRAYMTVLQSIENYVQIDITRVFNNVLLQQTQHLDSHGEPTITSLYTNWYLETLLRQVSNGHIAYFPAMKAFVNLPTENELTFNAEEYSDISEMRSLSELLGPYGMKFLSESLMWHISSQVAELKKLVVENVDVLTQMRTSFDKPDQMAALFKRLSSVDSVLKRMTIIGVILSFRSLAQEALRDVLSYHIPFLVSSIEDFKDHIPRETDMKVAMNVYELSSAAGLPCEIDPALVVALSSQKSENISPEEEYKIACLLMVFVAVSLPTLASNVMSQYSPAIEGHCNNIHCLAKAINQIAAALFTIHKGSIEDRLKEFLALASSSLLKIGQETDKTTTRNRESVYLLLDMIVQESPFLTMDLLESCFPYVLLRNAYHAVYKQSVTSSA
UniProt Q9H7D0: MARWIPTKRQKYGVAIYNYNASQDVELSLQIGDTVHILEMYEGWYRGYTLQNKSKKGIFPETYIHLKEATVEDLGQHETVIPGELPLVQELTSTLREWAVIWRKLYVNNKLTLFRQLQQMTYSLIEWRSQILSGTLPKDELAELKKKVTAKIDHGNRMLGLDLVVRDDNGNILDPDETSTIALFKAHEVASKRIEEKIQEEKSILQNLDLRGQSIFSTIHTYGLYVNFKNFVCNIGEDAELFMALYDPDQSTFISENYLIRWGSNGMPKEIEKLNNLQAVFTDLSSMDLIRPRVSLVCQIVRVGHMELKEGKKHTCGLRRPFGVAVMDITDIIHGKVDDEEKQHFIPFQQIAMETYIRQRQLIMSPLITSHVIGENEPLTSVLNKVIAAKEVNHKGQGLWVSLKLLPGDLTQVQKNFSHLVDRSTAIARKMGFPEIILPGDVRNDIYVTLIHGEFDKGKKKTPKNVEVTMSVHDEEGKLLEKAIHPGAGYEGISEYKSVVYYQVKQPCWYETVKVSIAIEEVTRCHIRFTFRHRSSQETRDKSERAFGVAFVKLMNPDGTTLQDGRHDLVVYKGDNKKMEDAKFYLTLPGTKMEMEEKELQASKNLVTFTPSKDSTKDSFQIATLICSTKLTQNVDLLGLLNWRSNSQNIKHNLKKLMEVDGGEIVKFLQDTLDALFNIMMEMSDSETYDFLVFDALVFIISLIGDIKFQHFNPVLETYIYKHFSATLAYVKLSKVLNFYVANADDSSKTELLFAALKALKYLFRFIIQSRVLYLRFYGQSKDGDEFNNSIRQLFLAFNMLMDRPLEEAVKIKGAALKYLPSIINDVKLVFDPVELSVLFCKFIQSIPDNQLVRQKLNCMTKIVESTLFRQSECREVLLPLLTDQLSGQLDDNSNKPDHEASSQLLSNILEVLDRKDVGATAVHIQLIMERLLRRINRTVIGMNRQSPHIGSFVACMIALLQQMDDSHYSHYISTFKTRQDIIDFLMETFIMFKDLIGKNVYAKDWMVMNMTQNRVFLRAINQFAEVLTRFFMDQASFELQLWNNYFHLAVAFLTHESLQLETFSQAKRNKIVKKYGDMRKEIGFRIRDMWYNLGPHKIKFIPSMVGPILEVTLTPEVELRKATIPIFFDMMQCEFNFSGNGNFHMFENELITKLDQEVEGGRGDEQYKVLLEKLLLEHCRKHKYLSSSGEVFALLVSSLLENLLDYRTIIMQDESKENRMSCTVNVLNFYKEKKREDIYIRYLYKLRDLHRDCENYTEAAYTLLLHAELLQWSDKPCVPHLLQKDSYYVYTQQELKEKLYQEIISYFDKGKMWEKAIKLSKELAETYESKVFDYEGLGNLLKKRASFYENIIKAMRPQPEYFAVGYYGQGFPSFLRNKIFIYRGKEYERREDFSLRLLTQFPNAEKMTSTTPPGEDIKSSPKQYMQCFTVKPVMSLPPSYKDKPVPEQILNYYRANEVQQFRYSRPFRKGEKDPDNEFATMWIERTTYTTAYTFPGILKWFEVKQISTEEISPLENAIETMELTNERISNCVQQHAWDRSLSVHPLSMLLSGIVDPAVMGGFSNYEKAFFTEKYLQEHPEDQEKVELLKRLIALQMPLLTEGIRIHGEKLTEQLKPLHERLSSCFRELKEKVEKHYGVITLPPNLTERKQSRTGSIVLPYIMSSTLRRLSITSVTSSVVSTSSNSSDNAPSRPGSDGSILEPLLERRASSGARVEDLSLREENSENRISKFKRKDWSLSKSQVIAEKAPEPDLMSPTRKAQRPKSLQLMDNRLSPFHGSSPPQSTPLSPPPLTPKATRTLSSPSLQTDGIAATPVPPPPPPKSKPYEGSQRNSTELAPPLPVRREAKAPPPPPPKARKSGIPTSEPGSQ

target: Engulfment and cell motility protein 1 (human (endogenous in MSC)) (UniProt Q92556); test: co-IP + affinity purification with mass spectrometry; MSC protein extract (HC-MSC and AS-MSC) incubated with an anti-ELMO1 antibody (1:100) or IgG control at 4 °C overnight, protein G agarose beads for another 4 h; immunoprecipitants collected for LC-MS/MS and western blotting

Row | Substance | binding
1 | DOCK4 (from UniProt Q8N1I0 1-1966) | binds
2 | NCKAP1 (from UniProt Q9Y2A7 1-1128) | binds
3 | DOCK5 (from UniProt Q9H7D0 1-1870) | binds

Results are given in words; binding and its absence hold for the method and conditions named. Binding seen in cells or lysates may run through a third protein. A yes stands for co-enrichment or nearness to the bait. Other partners may have been found.
